The exact form of at least one protein or probe is not confirmed. The comparison behind a weaker result is the experiment's own reference, which may not be listed here. Protein sequences can lack the tags named with them.
Tested on: T1, AzuR (Anabaena sp. strain PCC 7120)
T1 sequence (looked up): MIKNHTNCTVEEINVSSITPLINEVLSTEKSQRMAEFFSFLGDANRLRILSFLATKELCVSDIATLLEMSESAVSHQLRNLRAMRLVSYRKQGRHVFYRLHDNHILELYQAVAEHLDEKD
Assay: EMSA
Details: 20 mM Tris-Cl pH 7.5, 1 mM EDTA, 20 ul, RT 30 min, 10% native PAGE in 0.5x TBE, recombinant protein, residues 1-120, label: DIG-ddUTP end label (unlabeled in Fig 4C), probe letters rebuilt from the primers and the genome

Measured: binding result

AAACGTATTATATAACCTAATTGTTACATTTTATTAAGCAATACTTGAACATCTGTTCAGGTATTGTAGTGTAATCACAAGTGAAAACGGAGGAAATAAT (double strand) [PnmtA (100 bp upstream of nmtA ORF)]
binds more weakly: 100 uM Co2+, no DTT | 100 uM Cu2+, no DTT | 100 uM Mn2+, no DTT | 100 uM Ni2+, no DTT | 100 uM Pb2+, no DTT | increasing Cd2+, 1 mM DTT (more prominent disruption) | increasing Cd2+, no DTT | increasing Zn2+, no DTT

Reference: publication PMC8790569
